Data: patent publication US8679503B2, “Methods, compositions and kits relating to chitnases and chitnase-like molecules and inflammation disease” (Yale University, priority 2001, dated 2014)
At least one structure is not confirmed: it was looked up by name or label, or the drawing left a doubt.

What was measured:
[1] = tested on: OVA sensitized and challenged wild type mice; experiment: Allosamidin in OVA sensitization and challenge murine asthma model; format: in vivo, mouse
[2] = tested on: CC10-IL-13 transgene (+) mice; experiment: Allosamidin in transgenic mice constitutively expressing IL-13 (CC10-IL-13); format: in vivo, mouse; details: 1 mg/kg i.p., fourteen daily doses
[3] = daily i.p. doses from one day prior to OVA challenge

In the case of `CC(=O)N[C@H]1[C@H](O[C@H]2[C@@H](O)[C@@H](NC(C)=O)[C@H](O[C@H]3[C@H](O)[C@H]4N=C(N(C)C)O[C@H]4[C@@H]3CO)O[C@@H]2CO)O[C@H](CO)[C@@H](O)[C@H]1O` [allosamidin], the “inhibitory effect on cell influx at lowest dose” value ([1]; 1 mg/kg i.p. daily) is reported as “still prominent”, the “dose-dependent effect on percentage eosinophil recovery in BAL” value ([1]; FIG. 16F) is reported as “significant (p<0.01) reduction in percentage of eosinophils in BAL cell recovery” and the “dose-dependent effect on total eosinophil recovery in BAL” value ([1]; FIG. 16G) is reported as “significant (p<0.01) reduction in total eosinophil BAL cell recovery”. For the same compound, the “percentage of eosinophils recovered in BAL fluid” value ([1]; daily allosamidin 1 mg/kg, FIG. 16B) was “significant (p<0.01) reduction in the percentage of eosinophils recovered”, the “total number of eosinophils recovered in BAL fluid” value ([1]; daily allosamidin 1 mg/kg, FIG. 16C) was “significant (p<0.01) reduction in total eosinophil recovery” and the “number of lymphocytes recovered in BAL fluid” value ([1]; daily allosamidin 1 mg/kg, FIG. 16D) was “significant (p<0.01) reduction in total lymphocyte recovery”. For the same compound, the “total BAL cell recovery” value ([1]; daily allosamidin 1 mg/kg, OVA sensitized and challenged wild type animals, FIG. 16A) was “significant (p<0.01) reduction in total BAL cell recovery”, the “eosinophil influx in the OVA challenged lung” value [1, 3] was “dose-dependent inhibition” and the “lymphocyte influx in the OVA challenged lung” value [1, 3] was “dose-dependent inhibition”. The “total cell influx in the OVA challenged lung” value [1, 3] was “dose-dependent inhibition”, the “BAL fluid cell recovery” value ([2]; six-week old transgene (+) IL-13 mice, versus vehicle control) was “markedly decreased” and the lung volumes ([2]; versus littermate controls) was “decreased lung volumes”. For the same compound, the alveoli size ([2]; versus littermate controls, morphometric, histologic analysis) was “smaller alveoli”, the “BAL and tissue eosinophils” value ([2]; versus vehicle control) was “impressive decreases” and the “BAL and tissue lymphocytes” value ([2]; versus vehicle control) was “impressive decreases”. The tissue inflammation ([2]; versus vehicle control) was “decreased tissue inflammation”.
